Laboratory results: PMC8523714
No constants are given. Whether binding was seen depends on the method and setting. Binding seen in cells or lysates may run through a third protein. Some binding calls cover weakened binding; strength is not graded here. Tags and fused reporters may be left off the sequences shown.

By UniProt entry, the sequences of proteins in these tests, tags left out. Where a name states a change or a piece, a line headed by the entry shows the natural chain unless it says otherwise. Chains listed by the source or under a name are the forms on record and can include a tag or linker.
UniProt Q9BYI3: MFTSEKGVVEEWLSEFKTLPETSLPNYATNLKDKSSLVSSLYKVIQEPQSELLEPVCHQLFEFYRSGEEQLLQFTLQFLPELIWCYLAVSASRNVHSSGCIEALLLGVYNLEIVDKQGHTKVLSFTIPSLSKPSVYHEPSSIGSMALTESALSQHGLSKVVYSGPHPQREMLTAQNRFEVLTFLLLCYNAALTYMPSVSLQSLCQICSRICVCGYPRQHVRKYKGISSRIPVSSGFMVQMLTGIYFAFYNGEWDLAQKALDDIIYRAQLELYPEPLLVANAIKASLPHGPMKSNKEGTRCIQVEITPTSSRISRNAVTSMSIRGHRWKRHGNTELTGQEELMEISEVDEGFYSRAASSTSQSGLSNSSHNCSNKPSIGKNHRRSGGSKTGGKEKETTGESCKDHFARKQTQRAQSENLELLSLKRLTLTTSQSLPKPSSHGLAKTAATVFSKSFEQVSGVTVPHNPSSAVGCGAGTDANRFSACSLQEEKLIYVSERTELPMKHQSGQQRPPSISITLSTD
FLAG-FAM126A^ASASAA (Q9BYI3, form named): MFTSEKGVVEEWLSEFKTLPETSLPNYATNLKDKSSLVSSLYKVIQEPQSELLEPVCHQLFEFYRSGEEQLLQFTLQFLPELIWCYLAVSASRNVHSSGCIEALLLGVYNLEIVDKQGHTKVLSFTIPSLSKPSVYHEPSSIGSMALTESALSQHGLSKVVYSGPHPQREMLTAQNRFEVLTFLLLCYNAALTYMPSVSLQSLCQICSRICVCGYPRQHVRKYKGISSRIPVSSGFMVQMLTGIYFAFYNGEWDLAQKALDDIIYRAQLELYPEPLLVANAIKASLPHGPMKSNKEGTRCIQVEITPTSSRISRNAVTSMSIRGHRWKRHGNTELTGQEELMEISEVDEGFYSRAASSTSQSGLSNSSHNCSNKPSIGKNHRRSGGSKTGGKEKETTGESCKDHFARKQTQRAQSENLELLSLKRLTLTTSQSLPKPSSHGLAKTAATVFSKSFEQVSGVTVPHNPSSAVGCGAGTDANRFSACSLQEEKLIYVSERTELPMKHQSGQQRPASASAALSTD

T1: EFR3B-HA (human) (UniProt Q9Y2G0)
T1 sequence: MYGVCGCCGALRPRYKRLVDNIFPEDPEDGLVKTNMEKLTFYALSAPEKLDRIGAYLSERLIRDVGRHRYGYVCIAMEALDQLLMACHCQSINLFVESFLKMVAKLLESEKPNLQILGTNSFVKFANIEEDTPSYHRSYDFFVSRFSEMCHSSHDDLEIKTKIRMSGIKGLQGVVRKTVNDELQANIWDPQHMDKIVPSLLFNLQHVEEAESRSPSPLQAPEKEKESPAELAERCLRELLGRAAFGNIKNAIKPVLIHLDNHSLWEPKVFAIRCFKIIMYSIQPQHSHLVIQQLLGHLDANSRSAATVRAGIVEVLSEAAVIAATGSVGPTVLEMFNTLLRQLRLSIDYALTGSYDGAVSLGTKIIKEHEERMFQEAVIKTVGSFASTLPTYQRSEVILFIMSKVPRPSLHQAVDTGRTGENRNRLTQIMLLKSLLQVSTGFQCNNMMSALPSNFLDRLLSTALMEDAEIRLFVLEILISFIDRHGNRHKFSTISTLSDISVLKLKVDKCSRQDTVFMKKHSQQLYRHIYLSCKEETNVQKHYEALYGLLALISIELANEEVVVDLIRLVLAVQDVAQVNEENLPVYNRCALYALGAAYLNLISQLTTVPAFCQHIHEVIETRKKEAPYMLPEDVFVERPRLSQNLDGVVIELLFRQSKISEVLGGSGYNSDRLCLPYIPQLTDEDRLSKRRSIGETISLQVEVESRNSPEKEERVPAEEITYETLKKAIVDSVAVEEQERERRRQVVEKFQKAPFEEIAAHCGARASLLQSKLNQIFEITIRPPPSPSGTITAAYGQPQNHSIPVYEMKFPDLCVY

B1: FLAG-NFATC1 (protein, UniProt O95644 1-943)
chain: MPSTSFPVPSKFPLGPAAAVFGRGETLGPAPRAGGTMKSAEEEHYGYASSNVSPALPLPTAHSTLPAPCHNLQTSTPGIIPPADHPSGYGAALDGGPAGYFLSSGHTRPDGAPALESPRIEITSCLGLYHNNNQFFHDVEVEDVLPSSKRSPSTATLSLPSLEAYRDPSCLSPASSLSSRSCNSEASSYESNYSYPYASPQTSPWQSPCVSPKTTDPEEGFPRGLGACTLLGSPRHSPSTSPRASVTEESWLGARSSRPASPCNKRKYSLNGRQPPYSPHHSPTPSPHGSPRVSVTDDSWLGNTTQYTSSAIVAAINALTTDSSLDLGDGVPVKSRKTTLEQPPSVALKVEPVGEDLGSPPPPADFAPEDYSSFQHIRKGGFCDQYLAVPQHPYQWAKPKPLSPTSYMSPTLPALDWQLPSHSGPYELRIEVQPKSHHRAHYETEGSRGAVKASAGGHPIVQLHGYLENEPLMLQLFIGTADDRLLRPHAFYQVHRITGKTVSTTSHEAILSNTKVLEIPLLPENSMRAVIDCAGILKLRNSDIELRKGETDIGRKNTRVRLVFRVHVPQPSGRTLSLQVASNPIECSQRSAQELPLVEKQSTDSYPVVGGKKMVLSGHNFLQDSKVIFVEKAPDGHHVWEMEAKTDRDLCKPNSLVVEIPPFRNQRITSPVHVSFYVCNGKRKRSQYQRFTYLPANVPIIKTEPTDDYEPAPTCGPVSQGLSPLPRPYYSQQLAMPPDPSSCLVAGFPPCPQRSTLMPAAPGVSPKLHDLSPAAYTKGVASPGHCHLGLPQPAGEAPAVQDVPRPVATHPGSPGQPPPALLPQQVSAPPSSSCPPGLEHSLCPSSPSPPLPPATQEPTCLQPCSPACPPATGRPQHLPSTVRRDESPTAGPRLLPEVHEDGSPNLAPIPVTVKREPEELDQLYLDDVNEIIRNDLSSTSTHS

Assays:
[1] = target: T1, EFR3B-HA (human); test: co-IP; EFR3B-HA immunoprecipitated (anti-HA beads) from lysates of HeLa cells expressing GFP-PI4KA, EFR3B-HA, TTC7B-MYC and FLAG-FAM126A (WT or ASASAA); immunoblot
[2] = target: T1, EFR3B-HA (human); test: co-IP; EFR3B-HA immunoprecipitated (anti-HA beads) from lysates of HEK293 Flp-In T-REx cells that express GFP-CNAβ forms and were transfected with EFR3B-HA, TTC7B-MYC, FLAG-FAM126A and GFP-PI4KA; 50 mM Tris pH 7.5, 150 mM NaCl, 0.5% Triton X-100, 4 °C; immunoblot
[3] = target: GFP-CNAβ2 (human) (UniProt P16298); test: co-IP; GFP-CN isoforms immunoprecipitated (GFP) from lysates of HEK293 Flp-In T-REx cell lines co-expressing FLAG-NFATC1; immunoblot
[4] = target: GFP-CNAβ1 (human) (UniProt Q5F2F8); test: as above

Molecule	binding [1]	binding [2]	also measured
FLAG-FAM126A^WT (from UniProt Q9BYI3 1-521)	binds	–	–
GFP-CNAβ1^C2S (from UniProt Q5F2F8 1-496)	–	binds	–
GFP-CNAβ2 (from UniProt P16298 1-524)	–	binds	–
GFP-CNAβ1 (from UniProt Q5F2F8 1-496)	–	binds	–
FLAG-FAM126A^ASASAA (from UniProt Q9BYI3 1-521)	binds	–	–
GFP-PI4KA (from UniProt P42356 1-2102)	binds	binds	–
B1	–	–	binding [3]: binds; binding [4]: no binding
